Reference: patent US5698674A, “Triheterocyclic peptides capable of binding the minor and major grooves of DNA” (The Regents of the University of California, priority 1994, dated 1997)

System: d(GGCGCAAATTTGGCGG)(SEQ ID NO:1)/d(CCGCCAAATTTGCGCC)(SEQ ID NO:2)
Assay: Hoechst 33258 (Ht) fluorescence competition, equilibrium association constants with hexadecamer duplex
Assay type: binding
Details: pH 7.0, 35° C; mean ± SD
Experimental: Equilibrium constants for the association of 6a and 6b with oligomeric DNA were assessed by the complexing of tren-microgonotropen-a and -b to the hexadecamer d(GGCGCAAATTTGGCGG)(SEQ ID NO:1)/d(CCGCCAAATTTGCGCC)(SEQ ID NO:2) in aqueous solutions at 35° C. (2.8 mL solutions containing 0.01M phosphate buffer, pH 7.0, and 0.01M NaCl).
These reactions were followed by the competition of the dye Hoechst 33258 (Ht) with 6a and 6b for the A3 T3 minor groove binding site (an extension of Ht alone binding to dsDNA). The concentrations of 6a and 6b were confirmed by ^1 H NMR peak integration of resonances with those of an equivalent concentration of mesitoate.
As shown previously (Browne, K. A.; He, G.-X.; Bruice, T. C. J. Am. Chem. Soc. 1993, 115, 7072), monitoring the increase in fluorescence intensity as the association of Ht with the hexadecamer displaces prebound nonfluorescent ligands is an excellent method for determining equilibrium binding constants. […]
Eq 1, derived from FIG. 17, relates each of the equilibrium binding constants, the total fluorescence (Σθ), and [L] in terms of fluorescence (F) and [Ht]. […] The values of log KHt1 =7.6 and log KHt2 =9.1 used were determined from a reevaluation of data previously collected (Browne, et al., 1993, supra) and are very close to the previously determined values. […]

## CC(=O)Nc1cc(C(=O)Nc2cc(C(=O)Nc3cc(C(=O)NCCCN(C)C)n(C)c3)n(CCCCNCCN(CCN)CCN)c2)n(C)c1 [Compound 6b]
  Q' (static quenching term of DNA:Ht:L complex): 0.64 and 0.64 ± 0.046

Several values for one entry are separate records, joined by “and”; a condition that tells them apart may be missing. Equal entries are not always repeated.
